Data as given in US7812008B2, “9-substituted tetracyclines” (Wyeth LLC, priority 2005, dated 2010).
Several values for one entry are separate records, joined by “and”; a condition that tells them apart may be missing. Identical values can stand only once. At least one read-out could not be matched to a standard name with certainty.

System: S. aureus GC6467 (tet(M) + (K))
Assay: MIC broth microdilution, S. aureus GC6467 (tet(M) + (K))
Assay type: cell-based
Conditions: MHBII, 18-22 hours at 35° C.
Experimental: Methods for in Vitro Antibacterial Evaluation
The minimum inhibitory concentration (MIC)
Antimicrobial susceptibility testing. The in vitro activities of representative examples of antibiotics of the invention are determined by the broth microdilution method as recommended by the National Committee for Clinical Laboratory Standards (NCCLS) (1). Mueller-Hinton II broth (MHBII)(BBL Cockeysville, Md.) is the medium employed in the testing procedures. Microtiter plates containing serial dilutions of each antimicrobial agent are inoculated with each organism to yield the appropriate density (10^5 CFU/ml) in a 100 μl final volume. The plates are incubated for 18-22 hours at 35° C. in ambient air. […] NCCLS. 2000. Methods for Dilution Antimicrobial Susceptibility Tests for Bacteria That Grow Aerobically; Approved Standards: M7-A5, vol. 20. National Committe for Clinical Laboratory Standards, Wayne, Pa.

## CN(C)c1ccc(O)c2c1C[C@H]1C[C@H]3[C@H](N(C)C)C(O)=C(C(N)=O)C(=O)[C@@]3(O)C(O)=C1C2=O [Minocycline, 7-(dimethylamino)-6-demethyl-6-deoxytetracycline, reference compound]
  minimum inhibitory concentration (MIC): 8 and 16
